No dose or concentration is given here for some results.
Tested on: Pseudomonas putida DOT-T1E
Test: Growth on minimal medium with different carbon sources
Format: cell-based
Conditions: substance as carbon source in liquid M9 minimal medium, exponential growth phase

Structure (SMILES) | Doubling time
OCC(O)CO [Glycerol, glycerol] | 459 min
O=C(O)CCC(=O)O [Succinate, succinate] | 125 min

Source: patent US7348421B1, “Methods for production of p-hydroxybenzoate in bacteria” (North Carolina State University, priority 2000, dated 2008)
